Data published in paper PMC11481411.
Results are given in words; binding and its absence hold for the method and conditions named. In cells and extracts the contact can be indirect. Some binding calls cover weakened binding; strength is not graded here.

Sequences of proteins named here, by UniProt entry; tags and fusion partners are left off.
UniProt O95758: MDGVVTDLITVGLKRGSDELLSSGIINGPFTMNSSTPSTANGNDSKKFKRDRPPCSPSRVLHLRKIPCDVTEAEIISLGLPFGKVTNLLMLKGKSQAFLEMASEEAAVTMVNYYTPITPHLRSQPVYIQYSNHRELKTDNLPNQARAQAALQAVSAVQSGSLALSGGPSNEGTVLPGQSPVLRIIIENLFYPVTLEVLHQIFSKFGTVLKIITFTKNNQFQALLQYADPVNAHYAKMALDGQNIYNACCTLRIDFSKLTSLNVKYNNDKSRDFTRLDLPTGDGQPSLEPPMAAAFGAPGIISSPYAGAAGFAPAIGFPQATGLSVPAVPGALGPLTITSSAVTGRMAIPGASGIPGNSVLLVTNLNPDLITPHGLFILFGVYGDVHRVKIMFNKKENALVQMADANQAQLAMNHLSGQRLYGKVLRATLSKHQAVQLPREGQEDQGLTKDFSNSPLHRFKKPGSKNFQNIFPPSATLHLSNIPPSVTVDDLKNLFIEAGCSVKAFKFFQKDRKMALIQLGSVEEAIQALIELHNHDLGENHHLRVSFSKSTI
UniProt Q9UBU8: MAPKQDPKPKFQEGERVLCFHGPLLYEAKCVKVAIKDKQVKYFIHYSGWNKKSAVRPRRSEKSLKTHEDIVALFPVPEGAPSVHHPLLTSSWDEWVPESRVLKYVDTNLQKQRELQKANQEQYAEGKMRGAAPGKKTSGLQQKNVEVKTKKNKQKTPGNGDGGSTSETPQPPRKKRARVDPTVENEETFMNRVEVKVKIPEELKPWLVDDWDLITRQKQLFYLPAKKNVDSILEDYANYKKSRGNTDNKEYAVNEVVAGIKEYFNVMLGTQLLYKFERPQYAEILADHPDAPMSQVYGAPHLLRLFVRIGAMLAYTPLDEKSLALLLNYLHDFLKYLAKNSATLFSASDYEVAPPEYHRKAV

Columns and labels:
[1] = biological target: polypyrimidine region-binding protein 3 (PTBP3) (human (endogenous in human cell lines; line not stated)) (UniProt O95758); test: co-IP; cell lysates on protein A/G magnetic beads carrying MRG15 or PTBP3 antibody, overnight at 4 °C, western blot; also after hnRNPL overexpression (Figure S5J)
[2] = biological target: T1, hnRNPL (human (endogenous in human cell lines; line not stated)) (UniProt P14866); test: co-IP; cell lysates on protein A/G magnetic beads carrying antibody, overnight at 4 °C, western blot; with or without RNase A
T1 sequence: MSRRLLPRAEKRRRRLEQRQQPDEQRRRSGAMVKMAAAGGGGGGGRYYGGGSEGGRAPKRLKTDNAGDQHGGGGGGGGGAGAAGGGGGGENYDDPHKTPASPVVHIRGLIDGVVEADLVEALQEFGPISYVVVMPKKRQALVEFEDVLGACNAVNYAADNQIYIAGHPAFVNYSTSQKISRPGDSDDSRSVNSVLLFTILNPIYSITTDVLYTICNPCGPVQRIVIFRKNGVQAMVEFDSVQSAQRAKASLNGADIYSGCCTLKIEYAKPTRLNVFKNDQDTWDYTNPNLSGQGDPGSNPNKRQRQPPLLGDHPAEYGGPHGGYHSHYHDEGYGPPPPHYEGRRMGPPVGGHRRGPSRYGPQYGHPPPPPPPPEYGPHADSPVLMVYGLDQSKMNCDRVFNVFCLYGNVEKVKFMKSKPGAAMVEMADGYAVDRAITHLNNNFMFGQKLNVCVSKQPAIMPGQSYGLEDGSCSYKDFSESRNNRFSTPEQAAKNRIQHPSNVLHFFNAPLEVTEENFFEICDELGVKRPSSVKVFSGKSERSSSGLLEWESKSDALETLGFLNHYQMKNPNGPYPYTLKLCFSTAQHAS

| binding [1] | binding [2] | Substance |
| --- | --- | --- |
| binds | – | histone tail-binding protein MRG15 (from UniProt Q9UBU8 1-362) |
| – | binds | polypyrimidine region-binding protein 3 (PTBP3) (from UniProt O95758 1-552) |
